Results are given in words; binding and its absence hold for the method and conditions named. Some binding calls cover weakened binding; strength is not graded here.
Biological target: Torpedo californica acetylcholine receptor (Torpedo californica) (UniProt P02712)
Test: RIPA; Triton-solubilized TAChR labelled with 125I-αBTX

Protein sequences, listed by entry. Tags and fused reporters are not part of them. Lines headed by an entry give the natural chain unless they say otherwise; changes in a name come on top. Residues count along the entry.
UniProt P02712: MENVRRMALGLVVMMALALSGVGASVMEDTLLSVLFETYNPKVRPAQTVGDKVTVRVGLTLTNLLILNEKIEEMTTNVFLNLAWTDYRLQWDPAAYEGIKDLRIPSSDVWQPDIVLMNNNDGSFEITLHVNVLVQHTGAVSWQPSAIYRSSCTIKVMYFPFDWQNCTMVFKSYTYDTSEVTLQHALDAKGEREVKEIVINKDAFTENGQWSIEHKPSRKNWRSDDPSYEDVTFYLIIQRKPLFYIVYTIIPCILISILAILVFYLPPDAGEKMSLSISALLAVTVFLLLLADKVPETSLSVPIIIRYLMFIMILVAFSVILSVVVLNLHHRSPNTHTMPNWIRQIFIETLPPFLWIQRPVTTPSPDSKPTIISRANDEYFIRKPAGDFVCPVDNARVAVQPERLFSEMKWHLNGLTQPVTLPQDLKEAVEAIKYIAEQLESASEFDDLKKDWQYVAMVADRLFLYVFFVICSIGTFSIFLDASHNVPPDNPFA
UniProt P60615, residues 22-95: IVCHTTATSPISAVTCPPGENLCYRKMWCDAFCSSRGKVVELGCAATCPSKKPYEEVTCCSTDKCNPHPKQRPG

How did the binding turn out when “α-bungarotoxin (from UniProt P60615 22-95) (ligand)” was run?
The binding was “binds”.
